Patent publication US20250269041A1, “Mutual Prodrugs of Cromoglicic Acid” (Samdolite Pharmaceuticals, Inc., priority 2022, published 2025)
Counter-ions that a name gives are not always drawn. Like-named read-outs stand apart in the source and are kept apart here.

Conditions: black rat snake (Pantherophis obsoletus), 25 mg/mL
Protocol: Shed snakeskin, which is a model membrane to human skin used for preliminary permeability studies due to its similarity in composition to the human stratum corneum, was used as a skin model. The solution in the receiver compartment was maintained at 37° C. and stirred at 500 rpm with a magnetic stirrer. Before each experiment, the shed snakeskin was hydrated in 7.4 pH Dulbecco's Phosphate Buffered Saline (DPBS) containing 0.1% sodium azide solution for 24 hours at room temperature.
To emulate the esterase activity of human skin, a “sandwich” of shed snakeskin from a black rat snake (Pantherophis obsoletus) and a dialysis membrane with a molecular weight cut-off of 3.5 kDa (Cole-Palmer, Spectra Por S/P 3 EW-02900-04) was designed. Recombinant Human Carboxylesterase 2/CES2 (R&D Systems, #5657-CE) at a concentration 50 μg/mL was added between the snakeskin and the dialysis membrane (FIG. 1). A diffusion area of 0.64 cm^2 and a volume of 2 mL in the donor and receiver compartments were used. The temperature in Franz cell was controlled via thermocouple probe IT-23 (World Precision Instruments, Sarasota, FL, USA) placed in receiver compartment below the membrane “sandwich” through the sampling arm. All tested compounds were solubilized in 50% polyethylene glycol 400 (PEG 400)/DPBS at 25 mg/mL. PEG 400 was used to increase the water solubility of diethyl cromoglycate, cetirizine ethyl ester and cetirizine cromoglycate.
The system was allowed to equilibrate for one hour before each experiment. […] The receiver compartment was filled with 2 mL of 50% w/w polyethylene glycol 400 in DPBS to maintain a sink condition in the receiver solution. A sample was manually taken at 1-hour intervals from the receptor compartment and replaced with fresh DPBS at each time point. The concentration of drugs and their cumulative amount was plotted against time. Each experiment with each compound was performed in triplicate. The amount of the drug in the sample was estimated spectrophotometrically (NanoDrop™ UV-Visible spectrophotometer, Thermo Fisher Scientific Inc.). Light absorption was plotted as a function of concentration and fitted with a linear regression equation.

Q: Which results are given for `O=C(O)COCCN1CCN(C(c2ccccc2)c2ccc(Cl)cc2)CC1` (stereo not shown) [Cetirizine Dihydrochloride]?
A: Cumulative concentration per unit area (0 h): 0 μg/cm^2; Cumulative concentration per unit area (1 h): 14 μg/cm^2; Cumulative concentration per unit area (2 h): 22 μg/cm^2; Cumulative concentration per unit area (3 h): 35 μg/cm^2; Cumulative concentration per unit area (4 h): 53 μg/cm^2; Cumulative concentration per unit area (5 h): 73 μg/cm^2; Cumulative concentration per unit area (6 h): 94 μg/cm^2; Cumulative concentration per unit area (7 h): 115 μg/cm^2; Cumulative concentration per unit area (8 h): 130 μg/cm^2; Cumulative concentration per unit area (9 h): 163 μg/cm^2; Cumulative concentration per unit area (10 h): 198 μg/cm^2; Cumulative concentration per unit area (11 h): 215 μg/cm^2; Cumulative concentration per unit area (12 h): 234 μg/cm^2
